# Assay results from article PMC3891358.
# Sequences of proteins named here, by UniProt entry; tags and fusion partners are left off.
# UniProt Q63690: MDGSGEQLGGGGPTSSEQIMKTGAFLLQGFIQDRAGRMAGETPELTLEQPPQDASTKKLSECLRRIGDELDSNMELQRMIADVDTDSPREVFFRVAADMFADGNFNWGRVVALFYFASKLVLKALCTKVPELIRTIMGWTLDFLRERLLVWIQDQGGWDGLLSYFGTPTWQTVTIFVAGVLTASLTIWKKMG
# UniProt M0RC65: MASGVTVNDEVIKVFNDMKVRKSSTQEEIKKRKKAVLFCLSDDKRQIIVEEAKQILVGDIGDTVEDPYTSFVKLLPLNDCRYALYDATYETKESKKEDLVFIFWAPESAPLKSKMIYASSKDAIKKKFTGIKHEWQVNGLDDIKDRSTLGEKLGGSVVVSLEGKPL
# These are yes or no findings as the source states them, for the method shown. Binding seen in cells or lysates may run through a third protein. Here binding means that the protein was enriched with, or labelled near, the bait; the list need not be complete. For some assays here: No binding means not detected with the bait.
# Experiments:
# [1] = target: Bax (rat (endogenous in late OPCs of Sprague-Dawley rats and in white matter of Wistar rats)) (UniProt Q63690); experiment: condition: only OPCs treated with glutamate (500 μM); affinity purification with mass spectrometry; as a3, late OPCs treated with glutamate
# [2] = target: Bax (rat (endogenous in late OPCs of Sprague-Dawley rats and in white matter of Wistar rats)) (UniProt Q63690); experiment: affinity purification with mass spectrometry; IP of total Bax (N20) from IGF-I-treated late OPCs, 1% CHAPS lysis buffer; SDS/PAGE, ~20 kDa band excised, ESI-LC-MS/MS
substance,measurement,setting,value
cofilin (from UniProt M0RC65 1-166),binding,[1],no binding
same,binding,[2],binds
